Data published in PubChem BioAssay AID296 (DTP/NCI, 2004).
The list is a part of this screen's results and no random one: it is rich in T/C values a quarter to a half above the control, in often repeated tests (any T/C) and in doses without a T/C. Further doses and runs are listed elsewhere. T/C gives the treated animals as a percentage of the vehicle group. Schedules are NCI's codes, read here as Q, the interval in days (D) or hours (H), X, the number of doses. Some values lie below zero, which means that the treated tumours became smaller. Some entries were tested several times; the results are listed from low to high. Some structures stand for samples that the source files as different forms (salt, stereo form or complex); doses refer to the form tested. Some T/C values are followed by the survivors on the day toxicity was checked, most often the fifth; where none is given, no animal had died by that day. Some entries give survivors of the animals treated and no T/C: the source files T/C as zero there, which appears to mark a toxic dose or a test without result, not a measured value. Counts of survivors are from the toxicity check (mostly the fifth day) where no day follows; animals may have died later.

System: MX-1 breast xenograft, nude mice, tumor weight T/C
Assay: NCI In Vivo Anticancer Drug Screen. Data for tumor model Human Mammary Carcinoma MX-1 Xenograft (intrarenal inoculation) in NU/NU Swiss (nude) mice
Conditions: T/C endpoint: mean tumor weight change, higher T/C = larger tumour; for T/C: evaluated on day 11
Outline: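 Read-out: treated (T) over vehicle control (C) ratio of survival or tumor size. Dosing in animals carrying the transplanted tumor.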

[1] = dose: 1600.0 mg/kg/injection, schedule: Q04DX003 (sc), vehicle: water
[2] = dose: 2400.0 mg/kg/injection, schedule: Q04DX003 (sc), vehicle: saline with Tween-80
[3] = dose: 200.0 mg/kg/injection, schedule: Q01DX010 (sc), vehicle: Klucel (hydroxypropylcellulose) (HPC)
[4] = dose: 450.0 mg/kg/injection, schedule: Q04DX003 (sc), vehicle: saline
[5] = dose: 900.0 mg/kg/injection, schedule: Q04DX003 (sc), vehicle: saline
[6] = dose: 300.0 mg/kg/injection, schedule: Q04DX003 (sc), vehicle: saline with Tween-80
[7] = dose: 800.0 mg/kg/injection, schedule: Q01DX010 (sc), vehicle: Klucel (hydroxypropylcellulose) (HPC)

`[CH3][Sn]([CH3])([Cl])[S]CCN` was tested, and the T/C (dose: 37.5 mg/kg/injection, schedule: Q04DX003 (sc), vehicle: suspension in saline) was 143 % of control and the survivor count (dose: 150.0 mg/kg/injection, schedule: Q04DX003 (sc), vehicle: suspension in saline) was 0 of 6 on day 11.

For `Nc1cc(Cl)c2[nH]cnc2n1`, the survivor count [1] was 0 of 6 on day 11.

For `O=C(NO)c1ccc(O)c(O)c1`, the survivor count (dose: 1200.0 mg/kg/injection, schedule: Q04DX003 (sc), vehicle: distilled water + Tween-80) was 3 of 6 on day 11, the survivor count (dose: 1600.0 mg/kg/injection, schedule: Q04DX003 (sc), vehicle: other) was 0 of 6 on day 11 and the survivor count [1] was 0 of 6 on day 11.

For `CCCCCCCCCCCCCCCCCC(=O)Nc1ccn(C2OC(CO)C(O)C2O)c(=O)n1` (centres undefined), the survivor count (dose: 1200.0 mg/kg/injection, schedule: Q04DX003 (sc), vehicle: saline with Tween-80) was 2 of 5 on day 11.

With `O=C(C1CO1)C(Cl)(Cl)Cl` (centres undefined) the T/C (dose: 75.0 mg/kg/injection, schedule: Q04DX003 (sc), vehicle: saline) was 139 % of control, the survivor count (dose: 300.0 mg/kg/injection, schedule: Q04DX003 (sc), vehicle: saline) was 0 of 6 on day 11 and the survivor count (dose: 600.0 mg/kg/injection, schedule: Q04DX003 (sc), vehicle: saline) was 0 of 6 on day 11.

With `Cc1c2cc[n+](CCN3CCCCC3)cc2c(C)c2c1[nH]c1ccc(O)cc12` the survivor count (dose: 200.0 mg/kg/injection, schedule: Q04DX003 (sc), vehicle: suspension in saline) was 2 of 6 on day 11.

In the case of `NC(=S)N/N=C/c1ccc(OC(=O)COc2ccc(Cl)cc2)cn1`, the survivor count [2] is reported as 1 of 6 on day 11.

With `CCCCOCN(COCCCC)C(C)Cc1ccccc1` (centres undefined) the survivor count (dose: 1600.0 mg/kg/injection, schedule: Q04DX003 (sc), vehicle: saline with Tween-80) was 1 of 6 on day 11.

`CN(C)c1nc(N(C)C)nc(N(C)C)n1` was tested, and the survivor count (dose: 60.0 mg/kg/injection, schedule: Q01DX008 (ip), vehicle: saline) was 0 of 5, the survivor count (dose: 120.0 mg/kg/injection, schedule: Q01DX008 (ip), vehicle: saline) was 0 of 5 and the survivor count [3] was 1 of 2 on day 11. For the same molecule, the survivor count (dose: 240.0 mg/kg/injection, schedule: Q01DX008 (ip), vehicle: saline) was 0 of 5, the survivor count (dose: 480.0 mg/kg/injection, schedule: Q01DX008 (ip), vehicle: saline) was 0 of 5 and the survivor count (dose: 600.0 mg/kg/injection, schedule: Q04DX003 (sc), vehicle: saline with Tween-80) was 3 of 6 on day 11.

In the case of `CC(=O)OCC1OC(OC2=C(CC=C(C)C)C(=O)c3ccccc3C2=O)C(OC(C)=O)C(OC(C)=O)C1OC(C)=O` (centres undefined), the survivor count [3] is reported as 1 of 3 on day 11.

In the case of `N/C=N/O`, the survivor count (dose: 800.0 mg/kg/injection, schedule: Q01DX010 (sc), vehicle: saline) is reported as 0 of 3 on day 11.

In the case of `CCOC(=O)C(N)CSC(=O)NC` (centres undefined), the T/C (dose: 225.0 mg/kg/injection, schedule: Q04DX003 (sc), vehicle: saline) is reported as -70, 7, 44, 70 % of control, the T/C [4] is reported as -100, -64, 18 % of control and the survivor count [4] is reported as 3 of 6 on day 11. The T/C [5] was -100, -65, 3 % of control, the survivor count [5] was 3 of 5 on day 11 and the survivor count (dose: 1800.0 mg/kg/injection, schedule: Q04DX003 (sc), vehicle: saline) was 0 of 6 on day 11.

In the case of `NCc1cc(O)c(O)c(O)c1`, the survivor count (dose: 1200.0 mg/kg/injection, schedule: Q04DX003 (ip), vehicle: saline) is reported as 2 of 6 on day 11.

With `NC(=S)N/N=C\c1ncccc1OCc1cccc(N)c1` the T/C [6] was 133 % of control and the survivor count [2] was 3 of 6 on day 11.

`O=[N+]([O-])/C=C\c1ccc2c(c1)OCO2` was tested, and the survivor count (dose: 100.0 mg/kg/injection, schedule: Q01DX010 (sc), vehicle: Klucel (hydroxypropylcellulose) (HPC)) was 1 of 3 on day 11, the survivor count (dose: 400.0 mg/kg/injection, schedule: Q01DX010 (sc), vehicle: Klucel (hydroxypropylcellulose) (HPC)) was 1 of 2 on day 11 and the survivor count [7] was 1 of 3 on day 11.

For `O=C1c2c(O)ccc(O)c2C(=O)c2c(NCCNCCO)ccc(NCCNCCO)c21`, the T/C (dose: 1.0 mg/kg/injection, schedule: Q01DX010 (sc), vehicle: acid diluted with saline) was 128 % of control, the survivor count (dose: 4.0 mg/kg/injection, schedule: Q01DX010 (sc), vehicle: acid diluted with saline) was 0 of 3 on day 11 and the survivor count (dose: 10.0 mg/kg/injection, schedule: Q04DX003 (sc), vehicle: water) was 2 of 6 on day 11. For the same molecule, the survivor count (dose: 20.0 mg/kg/injection, schedule: Q04DX003 (sc), vehicle: other) was 0 of 6 on day 11, the survivor count (dose: 20.0 mg/kg/injection, schedule: Q04DX003 (sc), vehicle: water) was 0 of 6 on day 11 and the survivor count (dose: 40.0 mg/kg/injection, schedule: Q04DX003 (sc), vehicle: water) was 0 of 6 on day 11.

In the case of `C=C(C)[C@H]1Cc2c(ccc3c2O[C@@H]2COc4cc(OC)c(OC)cc4[C@@H]2C3=O)O1`, the T/C (dose: 2.0 mg/kg/injection, schedule: Q01DX010 (sc), vehicle: saline with Tween-80) is reported as 143 % of control and the survivor count (dose: 16.0 mg/kg/injection, schedule: Q01DX010 (sc), vehicle: saline with Tween-80) is reported as 1 of 3 on day 11.

In the case of `C1CN(P2(N3CC3)=NP(N3CC3)(N3CC3)=NP(N3CC3)(N3CC3)=N2)CCO1` (centres undefined), the survivor count (dose: 100.0 mg/kg/injection, schedule: Q04DX003 (sc), vehicle: saline) is reported as 0 of 6 on day 11 and 1 of 6 on day 11, the survivor count (dose: 200.0 mg/kg/injection, schedule: Q04DX003 (sc), vehicle: saline) is reported as 0 of 6 on day 11 and the survivor count (dose: 400.0 mg/kg/injection, schedule: Q04DX003 (sc), vehicle: saline) is reported as 0 of 6 on day 11.

For `O=C(O)CC(NC(=O)CP(=O)(O)O)C(=O)O.[NH-]C1CCCCC1[NH-].[Pt+2]` (centres undefined), the survivor count (dose: 100.0 mg/kg/injection, schedule: Q04DX003 (sc), vehicle: dextrose) was 2 of 6 on day 11 and the survivor count (dose: 200.0 mg/kg/injection, schedule: Q04DX003 (sc), vehicle: dextrose) was 0 of 6 on day 11.

In the case of `Cc1c2ccccc2c(C)c2c1cc(C(=O)O)c1ccccc12`, the T/C (dose: 150.0 mg/kg/injection, schedule: Q04DX003 (ip), vehicle: sodium bicarbonate) is reported as 136 % of control [4 of 6 alive on day 11], the survivor count (dose: 300.0 mg/kg/injection, schedule: Q04DX003 (ip), vehicle: sodium bicarbonate) is reported as 1 of 6 on day 11 and the survivor count (dose: 600.0 mg/kg/injection, schedule: Q04DX003 (ip), vehicle: sodium bicarbonate) is reported as 0 of 6 on day 11. The survivor count (dose: 1200.0 mg/kg/injection, schedule: Q04DX003 (ip), vehicle: sodium bicarbonate) was 0 of 6 on day 11.

In the case of `CN(C)/N=N/c1nc[nH]c1C(N)=O`, the survivor count [7] is reported as 1 of 6 on day 11.

In the case of `O=[Te]=O`, the survivor count (dose: 100.0 mg/kg/injection, schedule: Q04DX003 (sc), vehicle: suspension in saline) is reported as 2 of 6 on day 11.

`C[n+]1c(/C=C\C=C\N2CCCCC2)sc2ccccc21` was tested, and the survivor count (dose: 3.0 mg/kg/injection, schedule: Q04DX003 (sc), vehicle: Klucel (hydroxypropylcellulose) (HPC)) was 3 of 6 on day 11 and the survivor count (dose: 6.0 mg/kg/injection, schedule: Q04DX003 (sc), vehicle: Klucel (hydroxypropylcellulose) (HPC)) was 0 of 6 on day 11.

For `CN1CCN(CCCN2c3ccccc3Sc3ccc(C(F)(F)F)cc32)CC1`, the survivor count (dose: 200.0 mg/kg/injection, schedule: Q01DX010 (sc), vehicle: saline) was 1 of 3 on day 11 and the survivor count (dose: 400.0 mg/kg/injection, schedule: Q01DX010 (sc), vehicle: saline) was 0 of 3 on day 11.

For `CCN(CC)CCNc1ccc(C)c2sc3ccc(O)cc3c(=O)c12`, the T/C [6] was 130 % of control and the survivor count [2] was 3 of 6 on day 11.

For `COc1cccc2c1C(=O)c1c(O)c3c(c(O)c1C2=O)C[C@@](O)(/C(C)=N/NC(=O)c1cccc([N+](=O)[O-])c1)C[C@@H]3OC1CC(N)C(O)C(C)O1` (some centres undefined), the survivor count (dose: 32.0 mg/kg/injection, schedule: Q01DX010 (sc), vehicle: water) was 1 of 3 on day 11.
